Values quoted from earlier work, collected in patent publication US11666644B2, “Peptide vaccines” (TREOS BIO LIMITED, priority 2018, dated 2023).

Tests used:
melanoma = settings: Antigen expression frequency in melanomas (source antigen of the epitope); cited from earlier work
bladder cancer = settings: Antigen expression frequency in bladder cancers (source antigen of the epitope); cited from earlier work
ovarian cancer antigens = settings: expression of the peptide's target antigen in ovarian cancers, as reported in publications; cited from earlier work
breast cancer antigens = settings: expression of the peptide's target antigen in breast cancers, as reported in publications; cited from earlier work

Substance | Antigen N % (melanoma) | Antigen N % (bladder cancer) | also measured
179 (FAHPRKLLM; MAGE-A2 9mer) [compound 179] | 61% |  | 
180 (KAMVQAWPF; PRAME 9mer) [compound 180] | 90% |  | 
181 (FSYTLLSLF; MAGE-C1 9mer) [compound 181] | 45% |  | 
182 (RAIEQLAAM; Survivin 9mer) [compound 182] | 96% |  | 
183 (FSSTLVSLF; MAGE-C1 9mer) [compound 183] | 45% |  | 
184 (FSTTINYTL; MAGE-A2 9mer) [compound 184] | 61% |  | 
186 (YVFVNTLDL; MAGE-C1 9mer) [compound 186] | 45% |  | 
187 (FSYTLASLL; MAGE-C1 9mer) [compound 187] | 45% |  | 
188 (YIAQFTSQF; PRAME 9mer) [compound 188] | 90% |  | 
189 (MTSSFSSTL; MAGE-C1 9mer) [compound 189] | 45% |  | 
190 (HVMNPLETL; PRAME 9mer) [compound 190] | 90% |  | 
191 (RLLEFYLAM; Ny-ESO-1 9mer) [compound 191] | 38% |  | 
192 (MASESLSVM; MAGE-C2 9mer) [compound 192] | 45% |  | 
193 (FVYGEPREL; MAGE-C2 9mer) [compound 193] | 45% |  | 
195 (FTSSRMSSF; BORIS 9mer) [compound 195] | 27% |  | 
196 (FTVSGNLLF; LAGE-1 9mer) [compound 196] | 35% |  | 
198 (STFKNWPFL; Survivin 9mer) [compound 198] | 96% |  | 
199 (HSYVLVTSL; MAGE-A11 9mer) [compound 199] | 54% |  | 
200 (MTFGRLHRI; SSX-1 9mer) [compound 200] | 25% |  | 
202 (FSTSSSLIL; MAGE-C2 9mer) [compound 202] | 45% |  | 
204 (AMDAIFGSL; MAGE-A11 9mer) [compound 204] | 54% |  | 
205 (YEDHFPLLF; MAGE-A10 9mer) [compound 205] | 44% |  | 
206 (YAGREHFLF; MAGE-A11 9mer) [compound 206] | 54% |  | 
207 (RALAETSYV; MAGE-A1 9mer) [compound 207] | 37% |  | 
268 (FVASINLTL; PIWIL2 9mer) [compound 268] |  | 82% | 

Substance | Antigen N % (melanoma) | Antigen N % (bladder cancer) | also measured
269 (FYDPTSAMV; PIWIL2 9mer) [compound 269] |  | 82% | 
270 (FQMPHQEIV; PIWIL2 9mer) [compound 270] |  | 82% | 
271 (FLLTSFPTF; CTAGE1 9mer) [compound 271] |  | 53% | 
272 (FMFQEALKL; MAGE-A9 9mer) [compound 272] |  | 61% | 
273 (RTYWIIIEL; EpCAM 9mer) [compound 273] |  | 54% | 
274 (MIMENIQEL; OY-TES-1 9mer) [compound 274] |  | 28% | 
275 (SSISVYYTL; MAGE-A9 9mer) [compound 275] |  | 61% | 
276 (RLLEFYLAM; NY-ESO-1 9mer) [compound 276] |  | 31% | 
277 (RAIEQLAAM; SURVIVIN 9mer) [compound 277] |  | 62% | 
278 (FSYTLLSLF; MAGE-C1 9mer) [compound 278] |  | 27% | 
279 (FLFGGNNFI; CTAGE1 9mer) [compound 279] |  | 53% | 
280 (YVDEKAPEF; EpCAM 9mer) [compound 280] |  | 54% | 
281 (FAHPRKLLM; MAGE-A2 9mer) [compound 281] |  | 25% | 
282 (YVFVNTLDL; MAGE-C1 9mer) [compound 282] |  | 27% | 
283 (FTVSGNLLF; LAGE-1 9mer) [compound 283] |  | 30% | 
285 (AIWEALSVM; MAGE-A8 9mer) [compound 285] |  | 57% | 
286 (LQMSNFVNL; HAGE 9mer) [compound 286] |  | 24% | 
287 (KVAELVRFL; MAGE-A8 9mer) [compound 287] |  | 57% | 
289 (STFKNWPFL; SURVIVIN 9mer) [compound 289] |  | 62% | 
290 (FSTTINYTL; MAGE-A2 9mer) [compound 290] |  | 25% | 
292 (TSYVKVLEY; MAGE-A1 9mer) [compound 292] |  | 34% | 
293 (MASESLSVM; MAGE-C2 9mer) [compound 293] |  | 19% | 
294 (FVYGEPREL; MAGE-C2 9mer) [compound 294] |  | 19% | 
295 (YEDHFPLLF; MAGE-A10 9mer) [compound 295] |  | 28% | 
297 (LQLHITMPF; LAGE-1 9mer) [compound 297] |  | 30% | 

Substance | Antigen N % (melanoma) | Antigen N % (bladder cancer) | also measured
P0C01_P12b (SAQLLQARLMKEESPVVSWR) |  |  | Antigen Expression (ovarian cancer antigens): 30%
PBRC01_cP1 (ISDTKDYFMSKTLGIGRLKR; PBRC01_cP1 FSIP1) |  |  | Antigen Expression (breast cancer antigens): 49%
PBRC01_cP2 (FDRNTESLFEELSSAGSGLI; PBRC01_cP2 SPAG9) |  |  | Antigen Expression (breast cancer antigens): 88%
PBRC01_cP3 (SQKMDMSNIVLMLIQKLLNE; PBRC01_cP3 AKAP4) |  |  | Antigen Expression (breast cancer antigens): 85%
PBRC01_cP4 (SAVFHERYALIQHQKTHKNE; PBRC01_cP4 BORIS) |  |  | Antigen Expression (breast cancer antigens): 71%
PBRC01_cP5 (DVKEVDPTSHSYVLVTSLNL; PBRC01_cP5 MAGE-A11) |  |  | Antigen Expression (breast cancer antigens): 59%
PBRC01_cP6 (ENAHGQSLEEDSALEALLNF; PBRC01_cP6 NY-SAR-35) |  |  | Antigen Expression (breast cancer antigens): 49%
PBRC01_cP7 (MASFRKLTLSEKVPPNHPSR; PBRC01_cP7 HOM-TES-85) |  |  | Antigen Expression (breast cancer antigens): 47%
PBRC01_cP8 (KRASQYSGQLKVLIAENTML; PBRC01_cP8 NY-BR-1) |  |  | Antigen Expression (breast cancer antigens): 47%
PBRC01_cP9 (VDPAQLEFMFQEALKLKVAE; PBRC01_cP9 MAGE-A9) |  |  | Antigen Expression (breast cancer antigens): 44%
PBRC01_cP10 (EYEREETRQVYMDLNNNIEK; PBRC01_cP10 SCP-1) |  |  | Antigen Expression (breast cancer antigens): 38%
PBRC01_cP11 (PEIFGKASESLQLVFGIDVK; PBRC01_cP11 MAGE-A1) |  |  | Antigen Expression (breast cancer antigens): 37%
PBRC01_cP12 (DSESSFTYTLDEKVAELVEF; PBRC01_cP12 MAGE-C2) |  |  | Antigen Expression (breast cancer antigens): 21%
POC01_P1 (NSLQKQLQAVLQWIAASQFN; POC01_P1 AKAP4) |  |  | Antigen Expression (ovarian cancer antigens): 89%
POC01_P2 (SGDERSDEIVLTVSNSNVEE; POC01_P2 BORIS) |  |  | Antigen Expression (ovarian cancer antigens): 82%
POC01_P3 (VQKEDGRVQAFGWSLPQKYK; POC01_P3 SPAG9) |  |  | Antigen Expression (ovarian cancer antigens): 76%
POC01_P4 (EVESTPMIMENIQELIRSAQ; POC01_P4 OY-TES-1) |  |  | Antigen Expression (ovarian cancer antigens): 75%
POC01_P5 (AYFESLLEKREKTNFDPAEW; POC01_P5 SP17) |  |  | Antigen Expression (ovarian cancer antigens): 69%
POC01_P6 (PSQASSGQARMFPNAPYLPS; POC01_P6 WT1) |  |  | Antigen Expression (ovarian cancer antigens): 63%
POC01_P7 (RRSIAGFVASINEGMTRWFS; POC01_P7 HIWI) |  |  | Antigen Expression (ovarian cancer antigens): 63%
POC01_P8 (MQDIKMILKMVQLDSIEDLE; POC01_P8 PRAME) |  |  | Antigen Expression (ovarian cancer antigens): 60%
POC01_P9 (ANSVVSDMMVSIMKTLKIQV; POC01_P9 AKAP-3) |  |  | Antigen Expression (ovarian cancer antigens): 58%
POC01_P10 (REALSNKVDELAHFLLRKYR; POC01_P10 MAGE-A4) |  |  | Antigen Expression (ovarian cancer antigens): 37%
POC01_P11 (ETSYEKVINYLVMLNAREPI; POC01_P11 MAGE-A9) |  |  | Antigen Expression (ovarian cancer antigens): 37%
POC01_P12a (DVKEVDPTGHSFVLVTSLGL; POC01_P12a MAGE-A10) |  |  | Antigen Expression (ovarian cancer antigens): 52%
